## Screening data

The results are deposited in PubChem (AID1159506; NCATS, 2015).

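Genome-wide siRNA knockdown in TC32 Ewing sarcoma cells, comparing luciferase light from an NR0B1-promoter reporter with a CMV-promoter reporter 48 hours after transfection.
Each siRNA was applied at 20 nM.
A z-score of the log NR0B1-over-CMV signal, less the median of siRNAs with the same seed; more negative means a stronger specific loss of the NR0B1 reporter.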

This is part of the screen; most of the strongest results are not listed here.
Sequences are the guide (antisense) strand, without overhang.

| # | siRNA | target gene | seed-corrected z-score |
|---|---|---|---|
| 1 | `UGAACCAUGACCCUGAUGC` | SCNN1D | -0.1136 |
| 2 | `UUAAUUAACAGGAUCGUUU` | SPHAR | 1.353 |
| 3 | `AGCUGACUCACGAUCAUCU` | LITAF | -0.5562 |
| 4 | `UAUGCUGCUAGUGGUGAUG` | ANK3 | -0.01893 |
| 5 | `UGAUUUCUCCGCUUGCAGC` | NOSIP | 1.04 |
| 6 | `AAUCAACUCAGGCAAAUCC` | SUGCT | 0.178 |
| 7 | `UCAUCGGACAACUUCUUCC` | CYP4F3 | -1.117 |
| 8 | `UCGCUUGGAGUAUAGAUGC` | PPP1R16A | 0.1392 |
| 9 | `UUUGUCUUCAGGACACGUG` | CLIC2 | -0.2895 |
| 10 | `UUGACUUUAGGCUCAGUUC` | PCOLCE | 0.3655 |
| 11 | `UUUGGUAAGUUUGCGAUUG` | ANP32A | 0.9787 |
| 12 | `UUGGAGUCAUGUUUCACGG` | SEMA6B | 0.5387 |
| 13 | `UCUAUUUCAUCAUCGAUUC` | ZC3H8 | -0.3267 |
| 14 | `UCUUCUACCACAAAGAACC` | EXOC6 | 1.061 |
| 15 | `ACAGAAUAGACUGCAUUGC` | PLET1 | 0.0191 |
| 16 | `UUAGUGGUGAAAGAGACCG` | HAUS6 | -0.06607 |
| 17 | `UCCAUUUCUACCUUCAUCC` | HK2 | 0.6955 |
| 18 | `UCUACAGAUACGAUCUUUG` | SDPR | -0.4341 |
| 19 | `UUGGUAUGCGGGUAACUGC` | CALCR | 0.8112 |
| 20 | `UAUGGUUAGUUACUGCCCG` | DCXR | -0.1177 |
| 21 | `UACGCAAAUUGAUACGAUG` | ZBED8 | -0.06616 |
| 22 | `UGGAGUAUAAUCCAGAAUC` | SLC24A2 | -0.8963 |
| 23 | `AAUUGGAUGCUUUUUGCUG` | FLJ37453 | 0.8043 |
| 24 | `AACCUUUCCUGCGAUGUUC` | GLYATL3 | 0.9675 |
| 25 | `AAGCGUAAUAGAGCCCAUG` | SPEN | -0.7323 |
| 26 | `UACUUGAUAUGUCAGCUUG` | MUTYH | -0.2357 |
| 27 | `CAAAAUCCAGCGCCUAGGG` | ANKRD9 | -0.3239 |
| 28 | `UUCUCUCACAAUUCUAUGC` | MED9 | 0.4416 |
| 29 | `UAAUCUCCCAGCAUGUCGG` | ADGRG1 | -1.076 |
| 30 | `UUGCAGGACAGGUUGAUGC` | TCTE1 | 0.06468 |
| 31 | `AAACCAAUCCUUGUACCCG` | ROM1 | -0.4311 |
| 32 | `UAGUUGUCAAUGACGUAUC` | PLEKHG4B | -0.7386 |
| 33 | `UUCGUCGUCAAACAAGUUG` | KLK1 | -0.95 |
| 34 | `AUCGUGGAGAUCUAGAACC` | LRSAM1 | 0.3368 |
| 35 | `AAGGAUUUCGCCUCCUUCC` | MACROD1 | 0.0588 |
| 36 | `AAAAGGGUCGUACUUUUGC` | SCAF1 | 0.01602 |
| 37 | `AAUAUAUCAAUCCAAAUCC` | VRK2 | -0.6055 |
| 38 | `UGUGUGGCAGGUCCUAUGG` | SCGB1C1 | -0.1892 |
| 39 | `AAAUGUACCACAUAGGUAG` | FBXO15 | -0.3531 |
| 40 | `UGUUAUUUCAUUUCGUUGC` | LRRC39 | 0.3048 |
| 41 | `UUUGUGAUUGUUGGUAGAG` | NPTN | 0.2463 |
| 42 | `UUGGAUGAUAUGUAAAUCC` | OR5K3 | 1.804 |
| 43 | `UAUCUAAUGAAAGGUCUAG` | USP3 | 0.0238 |
| 44 | `UGCUAGAACAGGUAGAAGG` | NUMA1 | 0.1038 |
| 45 | `UGAUGAUCCAGAAGGUAGG` | PLEKHA1 | -1.073 |
| 46 | `UCCAGAACACUUUUGACUG` | RFWD2P1 | -1.073 |
| 47 | `AAAGGCCACACAUUUGAUC` | LGALS1 | 0.9493 |
| 48 | `UAUACCAUCCUAUUCGAGG` | GXYLT1 | -0.01568 |

Once more, the final 5:

* UGCUAGAACAGGUAGAAGG against NUMA1 : seed-corrected z-score 0.1038
* UGAUGAUCCAGAAGGUAGG against PLEKHA1 : seed-corrected z-score -1.073
* UCCAGAACACUUUUGACUG against RFWD2P1 : seed-corrected z-score -1.073
* AAAGGCCACACAUUUGAUC against LGALS1 : seed-corrected z-score 0.9493
* UAUACCAUCCUAUUCGAGG against GXYLT1 : seed-corrected z-score -0.01568